Measured data: PubChem BioAssay AID504791 (Drosophila RNAi Screening Center, 2011)

Aim: 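Factors in Argonaute-based small RNA production and activity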 (primary screen)
Cell system: Drosophila S2-derived reporter cells
Knock-down reagent: long dsRNA against Drosophila genes, about 150-250 ng dsRNA per well (siRNA assay); about 80-120 ng (miRNA assay)
Timing: about 5 days (siRNA assay); about 4 days (miRNA assay)
Treatment: copper sulfate induction of reporters: 25 µM (siRNA assay); 200 mM stated (miRNA assay), 1-2 days before reading
Detection: 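Per-well ratio of Renilla over firefly light, expressed relative to that plate's average ratio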
Active means: 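First-pass picks had plate-scaled ratios over 1.5 for the siRNA assay, over 1.6 for the miRNA assay, or under 0.6; two distinct dsRNAs had to score alike on retest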
In all, the deposit lists about 23,000 reagents; below is a random part of those with a known target gene and a result. Over the whole deposit, 199 (0.86%) are marked active. 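Plate-scaled ratios behind the calls are not deposited; printed light signals are raw; many rows marked increased or decreased are still called inactive.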 Names joined by + are all predicted targets of the reagent. The record does not give: the direction of the score.

no.	target gene	amplicon	stable siRNA reporter change	miRNA reporter change	stable assay Renilla, run 1 (luminescence)	stable assay firefly, run 1 (luminescence)	Outcome
1	Alp4 (Alkaline phosphatase 4)	DRSC14116			6334	3.05e5	inactive
2	Coq6 (Coenzyme Q6)	DRSC03040			1.29e5	1.55e5	inactive
3	brk (brinker)	DRSC18745			4627	2.25e5	inactive
4	brk (brinker)	DRSC23036			4839	3.10e5	inactive
5	DIP-kappa (Dpr-interacting protein kappa)	DRSC01336			4179	3.17e5	inactive
6	DIP-kappa (Dpr-interacting protein kappa)	DRSC01337			4243	3.39e5	inactive
7	CG14632 (retired record)	DRSC17942			2831	2.60e5	inactive
8	CG42714	DRSC08798			5175	4.87e5	inactive
9	Baldspot	DRSC09671			6562	3.80e5	inactive
10	CkIIalpha (casein kinase IIalpha)	DRSC11946		reporter ratio lowered past the hit cutoff	5408	4.66e5	inactive
11	Taf5 (TBP-associated factor 5)	DRSC07562			6838	4.37e5	inactive
12	Eig71Ej	DRSC11157			7068	3.61e5	inactive
13	fu (fused)	DRSC20333			7039	4.73e5	inactive
14	SppL (Signal peptide peptidase-like)	DRSC15228			6748	3.37e5	inactive
15	nudE	DRSC09000			5636	5.54e5	inactive
16	nudE	DRSC10962			6747	3.52e5	inactive
17	rad (retired record)	DRSC19687			3360	3.73e5	inactive
18	rad (retired record)	DRSC22865			4350	5.42e5	inactive
19	Mccc2 (Methylcrotonoyl-CoA carboxylase 2)	DRSC04987			6362	3.74e5	inactive
20	ZnT49B (Zinc transporter 49B)	DRSC07225			5223	2.28e5	inactive
21	l(3)76BDm (lethal (3) 76BDm)	DRSC11047			8430	3.54e5	inactive
22	CG17683	DRSC21160			5527	3.21e5	inactive
23	ND-30 (NADH dehydrogenase (ubiquinone) 30 kDa subunit)	DRSC08243			8118	5.16e5	inactive
24	Prp16 (pre-mRNA processing factor 16)	DRSC19538			10175	6.10e5	inactive
25	Prp16 (pre-mRNA processing factor 16)	DRSC19542			6379	4.57e5	inactive
26	CG3436	DRSC00605		reporter ratio lowered past the hit cutoff	10346	7.38e5	inactive
27	tow (target of wingless)	DRSC10192	reporter ratio raised past the hit cutoff		4667	1.74e5	inactive
28	tow (target of wingless)	DRSC23125			4918	3.53e5	inactive

Quoted from the entries so far (7 entries):
no.	target gene	amplicon	stable siRNA reporter change	miRNA reporter change	stable assay Renilla, run 1 (luminescence)	stable assay firefly, run 1 (luminescence)	Outcome
11	Taf5 (TBP-associated factor 5)	DRSC07562			6838	4.37e5	inactive
12	Eig71Ej	DRSC11157			7068	3.61e5	inactive
13	fu (fused)	DRSC20333			7039	4.73e5	inactive
14	SppL (Signal peptide peptidase-like)	DRSC15228			6748	3.37e5	inactive
15	nudE	DRSC09000			5636	5.54e5	inactive
16	nudE	DRSC10962			6747	3.52e5	inactive
17	rad (retired record)	DRSC19687			3360	3.73e5	inactive

Further reagents:
no.	target gene	amplicon	stable siRNA reporter change	miRNA reporter change	stable assay Renilla, run 1 (luminescence)	stable assay firefly, run 1 (luminescence)	Outcome
29	Dh31-R (Diuretic hormone 31 Receptor)	DRSC06647			5894	2.63e5	inactive
30	Dh31-R (Diuretic hormone 31 Receptor)	DRSC06669			6835	4.23e5	inactive
31	SCAR	DRSC03426			6314	3.04e5	inactive
32	CG31253 + CG31131	DRSC13839			6534	4.73e5	inactive
33	CG16762	DRSC08493			6888	4.99e5	inactive
34	CG9705	DRSC11094			8516	3.39e5	inactive
35	CG3732	DRSC04410			8619	1.55e6	inactive
36	OS9 + Hf	DRSC03392			8019	1.77e6	inactive
37	CG32188	DRSC09510			4986	3.76e5	inactive
38	Brms1 (BRMS1 transcriptional repressor)	DRSC19896			6255	4.59e5	inactive
39	comt (comatose)	DRSC20319			4928	3.94e5	inactive
40	gig (gigas)	DRSC11351	reporter ratio raised past the hit cutoff		19640	4.28e5	inactive
41	Ir94f (Ionotropic receptor 94f)	DRSC13621			6406	3.79e5	inactive
42	CG12299	DRSC02158		reporter ratio lowered past the hit cutoff	6494	1.74e6	inactive
43	CG17944	DRSC12572			6736	5.16e5	inactive
44	Cpr49Ag (Cuticular protein 49Ag)	DRSC07203			6271	3.47e5	inactive
45	CG14715	DRSC14938			8387	4.08e5	inactive
46	Meics (Meiotic central spindle)	DRSC11413			7107	5.22e5	inactive
47	Prp39 (pre-mRNA processing factor 39)	DRSC15133			6798	4.41e5	inactive
48	Ptpmeg (Protein tyrosine phosphatase Meg)	DRSC08684			10636	3.19e5	inactive
49	CG15534	DRSC15070			7486	4.99e5	inactive
50	Cyp4e1 (Cytochrome P450 4e1)	DRSC07370			6146	3.51e5	inactive
51	Trs20 (TRAPP subunit 20)	DRSC10489			7294	2.51e5	inactive
52	Pfdn1 (Prefoldin 1)	DRSC02325			8487	4.99e5	inactive
53	CG9444	DRSC16493			7639	3.86e5	inactive
54	CG17883	DRSC07838			5807	3.06e5	inactive
55	sphe (spheroide)	DRSC20203			6942	5.86e5	inactive
56	Aladin	DRSC18121			10408	5.14e5	inactive
57	CG7246	DRSC18422			4491	4.77e5	inactive
